Values from PubChem BioAssay AID1259308 (NCATS, 2017).
Shown is an unselected part of about 59,000 reagents tested. In the full data, about 1,510 (2.6%) were called active. 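Calls use total luciferase alone and ignore viability, so some active siRNAs may act by altering cell number.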 Reagents against one gene are numbered here. Further read-outs or replicates are left out here.

- Screen: 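Genes whose loss raises luciferase production in HEK293 cells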 (primary screen)
- System: human HEK293 embryonic kidney cells stably expressing firefly luciferase (HEK-CMV-Luc2-Hygro)
- Reagents: single siRNA against human genes, 0.8 pmol siRNA per well
- Time to read-out: 72 h
- Measured: 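Luciferase light (ONE-Glo) measured on one replicate plate set and viability (CellTiter-Glo) on the other, scaled to a negative control siRNA, with robust z-scores and luciferase per cell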
- Direction: total luciferase, z-score: higher = more reporter protein produced
- Call rule: 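An siRNA counts as active if its total luciferase robust z-score exceeds 3; genes with two or more such siRNAs out of three were retested with fresh siRNAs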
- Calls: active = raised luciferase; inactive = no rise

Against CDC42P6 #1, the entry reads total luciferase, z-score 3.26; active.
With knock-down of CDC42P6 #2, the record shows total luciferase, z-score 0.246; inactive.
Silencing of CDC42P6 #3 resulted in: total luciferase, z-score 1.98; inactive.
LINC01630 #1 showed total luciferase, z-score 1.33; inactive.
Against LINC01630 #2, the entry reads total luciferase, z-score -0.775; inactive.
After knock-down of LINC01630 #3, the record shows total luciferase, z-score 0.697; inactive.
For AGBL1 #1 the deposit lists total luciferase, z-score -2.11; inactive.
Knock-down of AGBL1 #2 came out at: total luciferase, z-score -1.36; inactive.
Knock-down of AGBL1 #3 resulted in: total luciferase, z-score -1.93; inactive.

Reagents above called active:
CDC42P6 #1 → total luciferase, z-score: 3.26; call: active

The results go on:
Silencing of SESN2 #1 came out at: total luciferase, z-score 0.672; inactive.
For SESN2 #2 the deposit lists total luciferase, z-score 4.08; active.
After knock-down of SESN2 #3, the screen gave total luciferase, z-score 1.19; inactive.
MLH3 #1 gave total luciferase, z-score -1.23; inactive.
Knock-down of MLH3 #2 gave: total luciferase, z-score -0.212; inactive.
After knock-down of MLH3 #3 the results were total luciferase, z-score -0.726; inactive.
After knock-down of RNF220 #1, the screen gave total luciferase, z-score 0.209; inactive.
Depletion of RNF220 #2 came out at: total luciferase, z-score 0.00133; inactive.
Silencing of RNF220 #3 came out at: total luciferase, z-score 2.09; inactive.
STING1 #1 showed total luciferase, z-score -2.58; inactive.
With knock-down of STING1 #2 the results were total luciferase, z-score 0.847; inactive.
With knock-down of STING1 #3, the screen gave total luciferase, z-score -0.329; inactive.
